# Data as given in PubChem BioAssay AID1159584 (Peter MacCallum Cancer Centre, 2016).
# Test: 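Genes that CDH1-null MCF10A cells selectively depend on to survive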 (primary screen)
# Cell system: human MCF10A breast epithelial cells, parental and CDH1-null
# Reagent: siRNA against human genes
# Measured: 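ATP luminescence (CellTiter-Glo) viability per line relative to mean mock wells over all plates, and the ratio of CDH1-null to parental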
# Direction: CDH1-null / parental viability ratio: higher = CDH1-null cells survive relatively better than parental; CDH1-null viability vs mock: higher = more viable CDH1-null cells
# The deposit covers about 18,000 reagents; below is an unselected part. Not all columns of the deposit are shown. Not given: the amount of reagent, the time to read-out.
target,CDH1-null / parental viability ratio,CDH1-null viability vs mock (fraction of mock)
VPS36,0.93,0.65
TMEM38B,1.09,0.86
CD37,0.91,0.7
NRIP3,1.05,0.96
MLIP,1.02,0.65
MTCL2,1.14,1.21
PTPRN2,1.18,1.06
RAI14,1.04,0.83
CPD,1.23,0.86
KCNMB1,1.09,1
CFAP91,1.13,0.95
RPP21,1.25,0.6
ODAM,1.02,0.82
FMO1,1.02,0.85
EIF2D,1.15,1.29
SESN1,1.13,1.04
COX7A1,1.06,0.68
DEDD,1.17,1.01
TBCCD1,0.87,0.73
TBC1D13,1.13,0.62
ACTRT1,1.02,0.5
PLCH2,1.11,0.78
CYP4Z1,0.97,0.86
ARHGAP28,1.62,0.91
UNK,0.83,0.7
SPATA6,1.21,0.68
IFT43,1,0.92
GPR156,1.33,0.85
ADAMTS6,1.05,0.78
COA6,0.92,0.8
RAB5B,1.11,1.15
TOR1AIP1,1.07,0.96
SEC13,1.05,0.4
CLTCL1,1.07,1.03
ZNF138,0.95,0.52
TAS2R7,0.9,0.53
ENTPD8,1.55,1.02
CFI,0.89,0.51
RAVER2,1.16,1.02
MET,1.04,0.88
LSMEM2,1.03,0.72
ISCA1,0.8,0.9
RDH14,0.71,0.5
CCNE2,1.15,1.15
ANKRD20A2P,0.99,0.79
IRAK1BP1,0.59,0.39
HSFX1,0.87,0.66
STAT3,1.02,0.92
PDS5B,0.96,0.93
BBOX1,0.96,0.92
EBF1,1.11,0.8
IL10RB,1.02,1.06
AQP2,1.03,0.8
TAF5L,1.04,0.84
GMNN,0.84,0.68
MT4,0.92,1.03
FER,0.81,0.74
PNPLA6,1.2,0.71
SNURF,1.11,0.91
KIF23,0.92,0.77
LOXL4,0.92,1.02
DIO1,1.14,0.9
RNASE7,0.74,0.62
PIGG,1.13,1.08
AP4M1,0.91,0.86
BRPF1,1.02,0.49
SLC25A52,1.09,0.75
MRGPRX2,1.15,0.84

Entries above whose target name starts with L or l:
target,CDH1-null / parental viability ratio,CDH1-null viability vs mock (fraction of mock)
LSMEM2,1.03,0.72
LOXL4,0.92,1.02
